The test relates to P388 leukemia ip, CD2F1 mice, survival T/C. In words: NCI In Vivo Anticancer Drug Screen. Data for tumor model P388 Leukemia (intraperitoneal) in CD2F1 (CDF1) mice. To be noted: T/C endpoint: median survival time, higher T/C = longer survival.
[1] abbreviates: dose: 100.0 mg/kg/injection, schedule: Q01DX009 (ip), vehicle: saline.
[2] abbreviates: dose: 200.0 mg/kg/injection, schedule: Q01DX009 (ip), vehicle: saline.
Setting [3] is: dose: 400.0 mg/kg/injection, schedule: Q04DX003 (ip), vehicle: saline.
Where [4] appears, read: dose: 25.0 mg/kg/injection, schedule: Q01DX009 (ip), vehicle: saline with Tween-80.
Setting [5] is: dose: 100.0 mg/kg/injection, schedule: Q01DX009 (ip), vehicle: saline with Tween-80.
Where [6] appears, read: dose: 200.0 mg/kg/injection, schedule: Q01DX009 (ip), vehicle: saline with Tween-80.

The list does not hold the whole screen: it gathers tests that were run many times, whatever their T/C, doses with no T/C, and many T/C values between a quarter and a half above the control. Other doses and runs of a compound stand elsewhere. T/C: endpoint of the treated group in % of that of the vehicle group. Some doses have a count of surviving animals in place of a T/C: the source files T/C as zero there, which appears to mark a toxic dose or a test without result, not a measured value. Some survivor counts are full or nearly so, which does not show that the dose was tolerated: survival well below the control is almost never listed, so the zero probably covers shortened survival too. Counts of survivors are from the toxicity check (mostly the fifth day) where no day follows; animals may have died later. Schedule codes are those of the source, taken here to give the interval after Q, in days (D) or hours (H), and the number of doses after X. Some entries were tested several times; their values stand side by side, smallest first. Where survival is the endpoint, the PubChem record calls one and a half times the control and up active, and a quarter to a half above the control has no call in these data; cut-offs in other NCI protocols can differ. Some T/C values are followed by the survivors on the day toxicity was checked, most often the fifth; where none is given, no animal had died by that day.

Regarding `N#CC12c3ccccc3C(c3ccccc31)C1C(=O)C=CC(=O)C12` (configuration not stated), the survivor count under setting [1] was 6 of 6 and the survivor count under setting [2] is reported as 6 of 6.
Turning to `COc1ccc2c(c1)CCC(Cc1ccc(Cl)cc1)C2c1ccc(OCCN2CCCC2)cc1` (configuration not stated), the survivor count reads like this: (dose: 100.0 mg/kg/injection, schedule: Q01DX005 (ip), vehicle: suspension in saline) 1 of 6; (dose: 200.0 mg/kg/injection, schedule: Q01DX005 (ip), vehicle: suspension in saline) 0 of 6.
For `COc1cc(C=C2C(=O)C=CC2=O)cc(OC)c1O`, the survivor count runs as follows: (dose: 25.0 mg/kg/injection, schedule: Q04DX002 (ip), vehicle: saline with Tween-80) 0 of 6; (dose: 50.0 mg/kg/injection, schedule: Q04DX002 (ip), vehicle: saline with Tween-80) 0 of 6; (dose: 100.0 mg/kg/injection, schedule: Q04DX002 (ip), vehicle: saline with Tween-80) 0 of 6.
As to `CCCCCCCC(=O)C1C(c2ccc(C(C)C)cc2)CC(=O)C(CCCCCC)C1c1ccc(C(C)C)cc1` (configuration not stated), the survivor count (dose: 50.0 mg/kg/injection, schedule: Q01DX005 (ip), vehicle: saline with Tween-80) is listed as 5 of 5.
For the compound `CC(C)NC(C)C(C)c1ccccc1` (configuration not stated), the survivor count is on record as 1 of 6 (dose: 100.0 mg/kg/injection, schedule: Q04DX003 (ip), vehicle: saline); 0 of 6 (dose: 200.0 mg/kg/injection, schedule: Q01DX001 (ip), vehicle: saline); 0 of 6 (dose: 200.0 mg/kg/injection, schedule: Q04DX003 (ip), vehicle: saline); 0 of 6 under setting [3].
Turning to `O=C(O)CC(=O)C(C(=O)O)C(CCc1ccccc1)C(C(=O)O)C(=O)CC(=O)O` (configuration not stated), the survivor count reads like this: (dose: 12.5 mg/kg/injection, schedule: Q01DX009 (ip), vehicle: saline with Tween-80) 6 of 6; under setting [4], 6 of 6; under setting [5], 6 of 6.
For `C1=CC2CCC1C1CSCC21` (configuration not stated), the survivor count is 0 of 6 under setting [1] and 0 of 6 under setting [2].
Take `CCN(CC)Cc1c(C)[nH]c2cc(N(C)C)ccc2c1=O`: the survivor count (dose: 200.0 mg/kg/injection, schedule: Q01DX009 (ip), vehicle: Klucel (hydroxypropylcellulose) (HPC)) is listed as 6 of 6.
Regarding `CNC(=O)OCc1c(COC(=O)NC)c(-c2ccc(C(C)(C)C)cc2)n(C)c1C`, the T/C by setting is: (dose: 3.12 mg/kg/injection, schedule: Q01DX009 (ip), vehicle: distilled water + Tween-80) 142 % of control; (dose: 6.25 mg/kg/injection, schedule: Q01DX009 (ip), vehicle: distilled water + Tween-80) 148 % of control; (dose: 12.5 mg/kg/injection, schedule: Q01DX009 (ip), vehicle: distilled water + Tween-80) 144 and 145 % of control [5 of 6 alive]; (dose: 25.0 mg/kg/injection, schedule: Q01DX009 (ip), vehicle: distilled water + Tween-80) 145 % of control. The survivor count was 1 of 6 and 6 of 6 (dose: 50.0 mg/kg/injection, schedule: Q01DX009 (ip), vehicle: distilled water + Tween-80); 1 of 6 and 2 of 6 (dose: 100.0 mg/kg/injection, schedule: Q01DX009 (ip), vehicle: distilled water + Tween-80).
`C/C(=N\NC(=S)N1CCC(c2ccccc2)CC1)c1ccccn1`: the survivor count under setting [3] is 0 of 6.
Take `CN1CC(O)C2=CC(=O)C(=O)C=C21` (configuration not stated): the survivor count (dose: 240.0 mg/kg/injection, schedule: Q01DX005 (ip), vehicle: saline) is listed as 0 of 6.
For the compound `Cn1nc(C#N)c(=O)[nH]c1=O`, the survivor count was 0 of 6 (dose: 100.0 mg/kg/injection, schedule: Q01DX005 (ip), vehicle: saline with Tween-80) and 0 of 6 (dose: 200.0 mg/kg/injection, schedule: Q01DX005 (ip), vehicle: saline with Tween-80).
On to `CCCCN(CCNc1cc(OC)cc2cccnc12)C(C)CC` (configuration not stated), for which the survivor count by setting is: (dose: 100.0 mg/kg/injection, schedule: Q01DX005 (ip), vehicle: saline) 4 of 5; (dose: 200.0 mg/kg/injection, schedule: Q01DX005 (ip), vehicle: saline) 0 of 5.
Regarding `CCOC(=O)c1c(-c2ccc3c(c2)OCO3)[nH][nH]c1=O`, the survivor count (dose: 400.0 mg/kg/injection, schedule: Q04DX002 (ip), vehicle: saline) is recorded as 3 of 6.
Regarding `CC[CH2][Pb]([CH2]CC)([CH2]CC)[O]C(=O)C1CCCCC1`, the T/C by setting is: (dose: 5.0 mg/kg/injection, schedule: Q01DX009 (ip), vehicle: saline with Tween-80) 125 % of control; (dose: 10.0 mg/kg/injection, schedule: Q01DX009 (ip), vehicle: saline with Tween-80) 134 % of control.
For the compound `CC(=O)Nc1ccc(NN=O)cn1`, the T/C is 125 % of control (dose: 25.0 mg/kg/injection, schedule: Q01DX009 (ip), vehicle: water); 125 and 134 % of control (dose: 50.0 mg/kg/injection, schedule: Q01DX009 (ip), vehicle: water); 135 % of control (dose: 100.0 mg/kg/injection, schedule: Q01DX009 (ip), vehicle: water).
As for `COc1ccc(N=C(N=C(NC(=O)c2ccccc2)c2ccccc2)c2ccccc2)cc1`, the survivor count under setting [6] was 6 of 6.
`CN(C(=S=O)c1ccc(Cl)cc1)c1ccccc1`: the survivor count (dose: 50.0 mg/kg/injection, schedule: Q01DX009 (ip), vehicle: saline) was 6 of 6; the survivor count (dose: 50.0 mg/kg/injection, schedule: Q01DX009 (ip), vehicle: suspension in saline) was 6 of 6; the survivor count (dose: 200.0 mg/kg/injection, schedule: Q01DX009 (ip), vehicle: suspension in saline) is 6 of 6.
On to `S=S1CC2(CSSC2)C1.[Cl][Hg][Cl]`, for which the survivor count (dose: 30.0 mg/kg/injection, schedule: Q01DX009 (ip), vehicle: saline) is reported as 3 of 6.
With `CO[C@H]1[C@H]2OC(C)(C)O[C@H]2O[C@H]1/C=C1\CC(=O)NC1=O`, the T/C is 131 % of control under setting [2] and 137 % of control [5 of 6 alive] (dose: 400.0 mg/kg/injection, schedule: Q01DX009 (ip), vehicle: suspension in saline).
With `Clc1ccc(C(CCOc2ccccc2Br)Cn2ccnc2)c(Cl)c1` (configuration not stated), the survivor count under setting [5] is 2 of 6 and 3 of 6; the survivor count under setting [6] is reported as 3 of 6.
On to `C=C1C(=O)O[C@@H]2C(=O)[C@@H](C)[C@@H]3C=CC(=O)[C@@]3(C)[C@@H](OC(=O)/C(C)=C\C)[C@H]12`, for which the T/C (dose: 16.0 mg/kg/injection, schedule: Q01DX009 (ip), vehicle: saline + alcohol) is 125 % of control; the T/C (dose: 32.0 mg/kg/injection, schedule: Q01DX009 (ip), vehicle: saline + alcohol) was 130 and 131 % of control. Also, the survivor count (dose: 64.0 mg/kg/injection, schedule: Q01DX009 (ip), vehicle: saline + alcohol) was 4 of 6.
On to `CN(C)CCOc1ccc2c(c1)C(=O)/C(=C\c1ncc([N+](=O)[O-])n1C)C2`, for which the T/C under setting [4] was 126 % of control; the T/C (dose: 50.0 mg/kg/injection, schedule: Q01DX009 (ip), vehicle: saline with Tween-80) was 126 and 129 % of control; the T/C under setting [5] was 129 % of control [5 of 6 alive]. Under setting [6], the survivor count is reported as 1 of 6.
